Results reported in PMC9737475.
No constants are given. Whether binding was seen depends on the method and setting. Binding seen in cells or lysates may run through a third protein. Some results given as binding are weak or reduced against the parent protein; the word gives no strength.

Protein sequences, listed by entry. Tags and fused reporters are not part of them.
UniProt P22736: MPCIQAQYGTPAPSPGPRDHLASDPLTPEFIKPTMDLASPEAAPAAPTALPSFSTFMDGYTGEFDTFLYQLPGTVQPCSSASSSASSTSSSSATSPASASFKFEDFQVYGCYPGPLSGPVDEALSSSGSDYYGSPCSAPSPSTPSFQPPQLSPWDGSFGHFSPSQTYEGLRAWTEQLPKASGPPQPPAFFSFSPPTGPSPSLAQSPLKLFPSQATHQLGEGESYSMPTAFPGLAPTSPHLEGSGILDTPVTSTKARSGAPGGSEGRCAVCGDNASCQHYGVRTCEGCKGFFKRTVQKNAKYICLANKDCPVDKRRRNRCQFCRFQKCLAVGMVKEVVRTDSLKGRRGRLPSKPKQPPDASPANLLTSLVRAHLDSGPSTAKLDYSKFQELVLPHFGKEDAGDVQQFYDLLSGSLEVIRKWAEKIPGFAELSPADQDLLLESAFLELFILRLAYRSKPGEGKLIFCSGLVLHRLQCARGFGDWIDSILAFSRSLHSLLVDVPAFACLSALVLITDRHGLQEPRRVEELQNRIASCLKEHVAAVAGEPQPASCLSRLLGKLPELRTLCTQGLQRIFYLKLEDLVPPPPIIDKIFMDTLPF
UniProt P10415: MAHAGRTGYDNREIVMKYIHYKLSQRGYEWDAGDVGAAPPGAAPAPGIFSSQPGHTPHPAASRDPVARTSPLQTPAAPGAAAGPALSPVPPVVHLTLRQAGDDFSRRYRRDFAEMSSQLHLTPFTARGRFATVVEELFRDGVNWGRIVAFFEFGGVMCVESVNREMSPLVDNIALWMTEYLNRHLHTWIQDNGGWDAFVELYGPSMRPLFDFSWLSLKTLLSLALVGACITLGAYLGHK

What was measured:
[1] = molecular target: GFP-Nur77 (UniProt P22736); assay: condition: only without Bkh126 treatment of the cells; co-IP; HepG2 cells co-transfected with GFP-Nur77 and Myc-Bcl-2, without Bkh126 (control); lysates precipitated with anti-GFP and protein A/G-sepharose, 4 °C, blotted with anti-GFP and anti-Myc; IP lysis buffer 10 mM Tris-HCl pH 8.0, 150 mM NaCl, 10 mM EDTA, 0.2% NP-40
[2] = molecular target: GFP-Nur77 (UniProt P22736); assay: co-IP; HepG2 cells co-transfected with GFP-Nur77 and Myc-Bcl-2, treated with 20 uM Bkh126 for 2 h (also in the presence of SP600125, JNK inhibitor, or SB203580, p38 inhibitor); lysates precipitated with anti-GFP and protein A/G-sepharose, 4 °C, blotted with anti-GFP and anti-Myc; IP lysis buffer 10 mM Tris-HCl pH 8.0, 150 mM NaCl, 10 mM EDTA, 0.2% NP-40

- binding [1]: no binding
- binding [2]: binds
Substance: Myc-Bcl-2 (from UniProt P10415 1-239)
